These are yes or no findings as the source states them, for the method shown.
Target: sAPPα (Sigma) (UniProt P05067)
Assay: condition: relation >1000 against Aβ(20-42) globulomer; first dot 1 pmol; dot blot with densitometry, antibody 0.2 µg/ml

B1: murine monoclonal anti-Aβ(20-42) globulomer antibody m4C9 (antibody, V domains shown)
VH: QVQLQQPGAELVKPGASVKLSCKAPGYTFTSYWMHWVKQRPGQGLEWIGRIDPKSGDTKYTEKFKSKATLTVDKPSSTAYMQLSSLTSEDSAVYYCTTMSKLSGTHAWFAYWGQGTLVTVSA
VL: DIKMTQSPSSMYASLGERVTITCKASQDINSYLTWFQQKPGKSPKTLIYRANRLVDGVPSRFSGSGSGQDYSLTISSLEYEDMGIYYCLQYDEFPLTFGAGTKLELK
- binding: no binding

From patent US20150368299A1
